Assay results reported in publication PMC6615629, “Hsp70-nucleotide exchange factor (NEF) Fes1 has non-NEF roles in degradation of gluconeogenic enzymes and cell wall integrity” (PLoS Genetics, 2019).
No constants are given. Whether binding was seen depends on the method and setting. Sequences can lack the tags named with a protein.

Protein sequences, listed by entry. Tags and fused reporters are not part of them.
UniProt P10591: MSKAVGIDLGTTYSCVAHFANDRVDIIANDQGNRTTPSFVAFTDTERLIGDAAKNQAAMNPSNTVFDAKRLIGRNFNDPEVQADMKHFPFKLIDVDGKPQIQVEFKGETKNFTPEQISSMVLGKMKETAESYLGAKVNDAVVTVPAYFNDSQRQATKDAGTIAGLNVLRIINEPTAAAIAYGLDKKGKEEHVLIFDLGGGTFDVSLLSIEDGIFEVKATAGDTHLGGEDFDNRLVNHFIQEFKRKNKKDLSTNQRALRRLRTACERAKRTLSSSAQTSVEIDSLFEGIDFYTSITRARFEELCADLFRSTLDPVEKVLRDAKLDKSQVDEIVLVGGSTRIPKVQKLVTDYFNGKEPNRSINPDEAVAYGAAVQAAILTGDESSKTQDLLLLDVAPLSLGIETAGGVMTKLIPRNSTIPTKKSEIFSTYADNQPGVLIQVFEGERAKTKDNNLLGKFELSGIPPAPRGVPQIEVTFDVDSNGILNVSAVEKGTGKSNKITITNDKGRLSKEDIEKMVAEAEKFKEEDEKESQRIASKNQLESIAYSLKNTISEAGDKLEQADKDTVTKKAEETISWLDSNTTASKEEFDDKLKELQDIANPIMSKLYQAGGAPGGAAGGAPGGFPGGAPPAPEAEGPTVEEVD

Biological target: T1, GST-Fes1^A79R,R195A (yeast (S. cerevisiae)) (UniProt P38260)
T1 sequence: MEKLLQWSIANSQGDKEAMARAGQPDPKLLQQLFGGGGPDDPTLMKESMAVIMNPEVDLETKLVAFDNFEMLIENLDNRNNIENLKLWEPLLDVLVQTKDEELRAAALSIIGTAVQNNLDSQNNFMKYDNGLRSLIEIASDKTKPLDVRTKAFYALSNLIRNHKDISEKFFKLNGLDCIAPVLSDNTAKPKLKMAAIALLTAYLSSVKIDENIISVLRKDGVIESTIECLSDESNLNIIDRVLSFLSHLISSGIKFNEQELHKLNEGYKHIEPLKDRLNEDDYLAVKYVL
Experiment: pull-down; GST-Fes1 (wild type or mutant, or GST alone) pulled down on glutathione resin; reactions with two or all three proteins; 6 μg each of His6-Fbp1 (1.6 μM), Hsp70 (0.9 μM) and GST-Fes1 (1.09 μM), with or without ATP, ADP or AMP (2.5 mM); 50 mM Tris-HCl pH 7.5, 150 mM NaCl, 2% glycerol, 5 mM MgCl2; 30 min at 4°C; stained SDS-PAGE gels; both purified

Ssa1 (from UniProt P10591 1-642)
binding: no binding (tested: Hsp70 0.9 μM, GST-Fes1 1.09 μM)
